# Assay results reported in the supplement of paper PMC10727501.
# This is one part of the list. Repeats in this data set agree poorly, so a single value says little.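 Free-swimming zebrafish larvae were assessed for O-bend response probability to dark flashes (naive: first five; training: remaining flashes across four 60-flash blocks; test: later 60-flash block) and for OMR turning toward alternating leftward/rightward LED motion. Six treated larvae were compared against sixty 0.1% DMSO controls; hits required |SSMD|≥2.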
# Tested on: Danio rerio larvae (5 dpf, TLF)
# Experiment: OMR-Perf (SSMD vs DMSO vehicle); higher = higher than vehicle (e.g. higher dark-flash O-bend response probability, or better optomotor performance)
# Conditions: 10 µM; pre-incubation: 30-90 min
row,SMILES,OMR-Perf
1,Cl.O=C1CC[C@@]2(O)[C@H]3Cc4ccc(O)c5c4[C@@]2(CCN3CC2CC2)[C@H]1O5 [Naltrexone HCl],0.214
2,CN1CCc2cccc3c2C1Cc1ccc(O)c(O)c1-3.CN1CCc2cccc3c2C1Cc1ccc(O)cc1-3 (stereo not drawn) [R-(-)-Apomorphine HCl Hemihydrate],-0.533
3,C#C[C@@]1(O)C=C[C@H]2[C@@H]3CCC4=CC(=O)CC[C@@H]4[C@@H]3CC[C@@]21CC [Gestodene],-0.156
4,Cc1cccc(C)c1NC1=NCCCS1.Cl [Xylazine HCl],-0.132
5,CC(C)NCC(O)c1ccccc1Cl.Cl (stereo unspecified) [Clorprenaline HCl],0.146
6,CC(O)(CS(=O)(=O)c1ccc(F)cc1)C(=O)Nc1ccc(C#N)c(C(F)(F)F)c1 (stereo unspecified) [Bicalutamide],-0.213
7,CC[C@@H]1[C@@H](C)O[C@@](O)([C@@H](C)[C@H](O)[C@H](C)[C@H]2OC(=O)/C=C/C=C/[C@H](C)[C@H]([C@@H](C)[C@@H](O)[C@H](C)[C@@]3(O)C[C@@H](O[C@H]4C[C@H](O)[C@H](O)[C@H](C)O4)[C@H](CC)[C@@H](C)O3)OC(=O)/C=C/C=C/[C@H]2C)C[C@H]1O[C@H]1C[C@H](O)[C@H](O)[C@H](C)O1 [Elaiophylin],0.184
8,CCOc1ccccc1-n1c(C(C)N2CCN(C(=O)COc3ccc(Cl)cc3)CC2)nc2ccccc2c1=O (stereo unspecified) [Erastin],-0.403
9,CC(C)N(CCC(C(N)=O)(c1ccccc1)c1ccccn1)C(C)C.O=P(O)(O)O (stereo unspecified) [Disopyramide Phosphate],0.28
10,Cc1cc(O)ccc1Cl [Chlorocresol],0.55
11,Cc1cccc([C@H](C)c2cnc[nH]2)c1C.Cl [Dexmedetomidine HCl (Precedex)],-1.33
12,C=C1C[C@@H]2[C@@H](CC[C@@]3(C)C(=O)CC[C@@H]23)[C@@]2(C)C=CC(=O)C=C12 [Exemestane],0.51
13,C[N+]1(C)[C@@H]2C[C@H](OC(=O)[C@H](CO)c3ccccc3)C[C@H]1[C@@H]1O[C@@H]12.[Br-] [Methscopolamine],-0.0441
14,c1cc2c(cc1[C@H]1OC[C@H]3[C@H]1CO[C@@H]3c1ccc3c(c1)OCO3)OCO2 [Sesamin],-1.04
15,O=c1[nH]c2ccccc2n1CCCN1CCC(n2c(=O)[nH]c3cc(Cl)ccc32)CC1 [Domperidone],-0.677
16,CCNCC.O=S(=O)(O)c1cc(O)ccc1O [Ethamsylate],0.155
17,C#C[C@@]1(O)CC[C@H]2[C@@H]3CCC4=CC(=O)CC[C@]4(C)[C@@H]3CC[C@@]21C [Ethisterone],0.448
18,CN1C2CCC1CC(OC(=O)[C@H](CO)c1ccccc1)C2 (stereo partly specified) [Hyoscyamine],-0.772

# Looked up above:
# OMR-Perf with CCOc1ccccc1-n1c(C(C)N2CCN(C(=O)COc3ccc(Cl)cc3)CC2)nc2ccccc2c1=O (stereo unspecified) [Erastin] is entered as -0.403
# OMR-Perf with CN1CCc2cccc3c2C1Cc1ccc(O)c(O)c1-3.CN1CCc2cccc3c2C1Cc1ccc(O)cc1-3 (stereo not drawn) [R-(-)-Apomorphine HCl Hemihydrate] is entered as -0.533

# (next part)

row,SMILES,OMR-Perf
1,O=C(O)CNC(=O)c1c(O)c2ccccc2n(Cc2ccccc2)c1=O,-0.306
2,C[N+](C)(C)CCCCCCCCCC[N+](C)(C)C.[Br-].[Br-] [Decamethonium Bromide],-0.273
3,CC[C@@H](C(N)=O)N1CCCC1=O [Levetiracetam],-0.368
4,NCC1(CC(=O)O)CCCCC1 [Gabapentin (Neurontin)],-0.0375
5,Cc1cc(C(=O)CN2CCCC2)c(C)n1-c1ccc(F)cc1,-0.206
6,C[C@H]1CCC/C=C/[C@@H]2C[C@H](O)C[C@H]2[C@H](O)/C=C/C(=O)O1 [Brefeldin A],-1.54
7,CN(C)C(=O)C(CCN1CCC(O)(c2ccc(Cl)cc2)CC1)(c1ccccc1)c1ccccc1.Cl [Loperamide HCl],0.294
8,CN1C(=O)CCS(=O)(=O)C1c1ccc(Cl)cc1 (stereo unspecified) [Chlormezanone],-0.424
9,C[C@]12CCC(=O)C=C1C=C[C@@H]1[C@@H]2CC[C@@]2(C)[C@H]1CC[C@@]2(O)CCC(=O)O.[K] [Potassium Canrenoate],0.859
10,C[C@]12CC[C@H](O)C[C@@H]1CC[C@@H]1[C@H]2CC[C@]2(C)C(=O)CC[C@@H]12 [Epiandrosterone],-0.96
11,CCCC[N+]1(C)[C@@H]2C[C@@H](OC(=O)[C@@H](CO)c3ccccc3)C[C@H]1[C@@H]1O[C@@H]12.[Br-] (stereo partly specified) [Butylscopolamine Bromide],-0.491
12,CN(C)Cc1c[nH]c2ccccc12 [Gramine],-0.105
13,NC[C@H](CC(=O)O)c1ccc(Cl)cc1 [(R)-baclofen],0.545
14,CN1CCc2cc3c(cc2[C@H]1[C@@H]1OC(=O)c2c1ccc1c2OCO1)OCO3 [(+)-Bicuculline],-0.759
15,CCCN1CCO[C@@H]2c3cc(O)ccc3OC[C@@H]21,-0.855
16,CCC1(C)CC(=O)NC(=O)C1 [Bemegride],-0.0161
17,CN(C)CCc1ccc(O)cc1 [Hordenine],-0.117
18,CC(C)(C)[C@@]1(O)C[C@@H]2OC(=O)C[C@@]23C(=O)O[C@H]2OC(=O)[C@H](O)C213 (stereo partly specified) [Bilobalide],-0.0311
